Counter-ions that a name gives are not always drawn. Some entries share one result that the patent states for a list of compounds.
Target: human Factor Xa (Homo sapiens, UniProt P00742)
Assay: In vitro assay for inhibition of Factor Xa (fluorogenic assay, Rhodamine 110 bis-CBZ-glycylglycyl-L-arginine amide substrate)
Assay type: biochemical
Method: In Vitro Assay for Inhibition of Factor Xa
Compounds of the present invention were tested for their Factor Xa inhibitory activity as determined in vitro by their ability to Inhibit human Factor Xa in a fluorogenic assay, using Rhodamine 110, bis-CBZ-glycylglycyl-L-arginine amide as the fluorogenic substrate. Compounds were diluted from a 10 mM stock solution in dimethylsulfoxide at appropriate concentrations. Assay was performed at room temperature using buffer consisting of: 50 mM Tris-HCl, 150 mM NaCl, 5 mM CaCl2, pH 7.4. containing human Factor Xa (final conc. Of 0.0003U.ml-1). Compound and enzyme were preincubated for 15 min prior to addition of the substrate (final conc. of 10 μM). The reaction was stopped after 3 hrs with the addition of H-D-Phe-Pro-Arg-Chloromethylketone. An LJL-Analyst fluorimeter was used to monitor fluorescence with 485 nm excitation/535 nm emission. To obtain IC50 values the data were analysed using ActivityBase® and XLfit®.
Calculation of Ki values: Ki=IC50/(1+[Substrate]/Km)
The Ki value for the above assay can be obtained by dividing the IC50 value by 1.6.

By UniProt entry, the sequences of proteins in these tests, tags left out. Residues count along the entry.
UniProt P00742, 41-179 partner limits assumed: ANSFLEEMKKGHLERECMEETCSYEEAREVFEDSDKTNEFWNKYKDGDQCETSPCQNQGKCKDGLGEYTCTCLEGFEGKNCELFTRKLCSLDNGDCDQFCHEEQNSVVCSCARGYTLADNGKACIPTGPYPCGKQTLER
UniProt P00742, 235-488 limits assumed: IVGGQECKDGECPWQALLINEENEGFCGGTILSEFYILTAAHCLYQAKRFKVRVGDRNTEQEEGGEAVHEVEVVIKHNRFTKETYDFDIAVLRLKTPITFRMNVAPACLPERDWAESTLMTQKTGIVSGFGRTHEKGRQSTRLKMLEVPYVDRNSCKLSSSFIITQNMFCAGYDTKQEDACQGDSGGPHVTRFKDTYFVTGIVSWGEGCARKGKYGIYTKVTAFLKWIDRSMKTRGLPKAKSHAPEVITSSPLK

[1] = Ki = IC50/1.6, tier 'preferably'
[2] = Ki = IC50/1.6, tiers 'more preferably' and 'most preferably'

Row | Structure (SMILES) | Ki [1] | Ki [2]
1 | C/C(=C\S(=O)(=O)N(CCOCC(N)=O)[C@H]1CCN(c2ccc(C(=O)N(C)C)cc2F)C1=O)c1ccc(Cl)s1 [Example 4, 4-[(3S)-3-({2-[(2-Amino-2-oxoethyl)oxy]ethyl}{[(1E)-2-(5-chloro-2-thienyl)-1-propen-1-yl]sulfonyl}amino)-2-oxo-1-pyrrolidinyl]-3-fluoro-N,N-dimethylbenzamide] | < 100 nM | < 100 nM
2 | C/C(=C\S(=O)(=O)N(C1CCCC1)[C@H]1CCN(c2ccc(C(=O)N(C)C)cc2F)C1=O)c1ccc(Cl)s1 [Example 5, 4-{(3S)-3-[{[(1E)-2-(5-Chloro-2-thienyl)-1-propen-1-yl]sulfonyl}(cyclopentyl)amino]-2-oxo-1-pyrrolidinyl}-3-fluoro-N,N-dimethylbenzamide] | < 100 nM | < 100 nM
3 | C/C(=C\S(=O)(=O)N(Cc1nccn1C)[C@H]1CCN(c2ccc(C(=O)N(C)C)cc2F)C1=O)c1ccc(Cl)s1 [Example 6, 4-((3S)-3{{[(1E)-2-(5-Chloro-2-thienyl)-1-propen-1-yl]sulfonyl}[(1-methyl-1H-imidazol-2-yl)methyl]amino}-2-oxo-1-pyrrolidinyl)-3-fluoro-N,N-dimethylbenzamide] | < 100 nM | < 100 nM
4 | C/C(=C\S(=O)(=O)N(Cc1ccccn1)[C@H]1CCN(c2ccc(C(=O)N(C)C)cc2F)C1=O)c1ccc(Cl)s1 [Example 8, 4-{(3S)-3-[{[(1E)-2-(5-Chloro-2-thienyl)-1-propen-1-yl]sulfonyl}(2-pyridinylmethyl)amino]-2-oxo-1-pyrrolidinyl}-3-fluoro-N,N-dimethylbenzamide] | < 100 nM | < 100 nM
5 | C/C(=C\S(=O)(=O)N(Cc1c(C)noc1C)[C@H]1CCN(c2ccc(C(=O)N(C)C)cc2F)C1=O)c1ccc(Cl)s1 [Example 9, 4-((3S)-3-{{[(1E)-2-(5-Chloro-2-thienyl)-1-propen-1-yl]sulfonyl}[(3,5-dimethyl-4-isoxazolyl)methyl]amino}-2-oxo-1-pyrrolidinyl)-3-fluoro-N,N-dimethylbenzamide] | < 100 nM | < 100 nM
6 | C/C(=C\S(=O)(=O)N(CCOC(C)(C)C)[C@H]1CCN(c2ccc(C(=O)N(C)C)cc2F)C1=O)c1ccc(Cl)s1 [Example 11, 4-[(3S)-3-({[(1E)-2-(5-Chloro-2-thienyl)-1-propen-1-yl]sulfonyl}{2-[(1,1-dimethylethyl)oxy]ethyl}amino)-2-oxo-1-pyrrolidinyl]-3-fluoro-N,N-dimethylbenzamide] | < 100 nM | < 100 nM
7 | C/C(=C\S(=O)(=O)N(Cc1nccnc1N)[C@H]1CCN(c2ccc(C(=O)N(C)C)cc2F)C1=O)c1ccc(Cl)s1 [Example 12, 4-[(3S)-3-([(3-Amino-2-pyrazinyl)methyl]{[(1E)-2-(5-chloro-2-thienyl)-1-propen-1-yl]sulfonyl}amino)-2-oxo-1-pyrrolidinyl]-3-fluoro-N,N-dimethylbenzamide] | < 100 nM | < 100 nM
8 | CN(C)C(=O)c1ccc(N2CC[C@H](N(C)S(=O)(=O)/C=C/c3ccc(Cl)s3)C2=O)c(F)c1 [Example 14, 4-{(3S)-3-[{[(E)-2-(5-chloro-2-thienyl)ethenyl]sulfonyl}(methyl)amino]-2-oxo-1-pyrrolidinyl}-3-fluoro-N,N-dimethylbenzamide] | < 100 nM | < 100 nM

More lines, now with the values ahead:

Row | Ki [1] | Ki [2] | Structure (SMILES)
9 | < 100 nM | < 100 nM | C/C(=C\S(=O)(=O)N(CCCN(C)C)[C@H]1CCN(c2ccc(C(=O)N(C)C)cc2F)C1=O)c1ccc(Cl)s1 [Example 2, 4-((3S)-3-{{[(1E)-2-(5-Chloro-2-thienyl)-1-propen-1-yl]sulfonyl}[3-(dimethylamino)propyl]amino}-2-oxo-1-Pyrrolidinyl)-3-fluoro-N,N-dimethylbenzamide formate]
10 | < 100 nM | < 100 nM | C/C(=C\S(=O)(=O)N(CCN(C)C)[C@H]1CCN(c2ccc(C(=O)N(C)C)cc2F)C1=O)c1ccc(Cl)s1 [Example 3, 4-((3S)-3-{{[(1E)-2-(5-Chloro-2-thienyl)-1-propen-1-yl]sulfonyl}[2-(dimethylamino)ethyl]amino}-2-oxo-1-pyrrolidinyl)-3-fluoro-N,N-dimethylbenzamide formate]
11 | < 100 nM | < 100 nM | C/C(=C\S(=O)(=O)N(C(C)C)[C@H]1CCN(c2ccc(C(=O)N(C)C)cc2F)C1=O)c1ccc(Cl)s1 [Example 7, 4-{(3S)-3-[{[(1E)-2-(5-Chloro-2-thienyl)-1-propen-1-yl]sulfonyl}(1-methylethyl)amino]-2-oxo-1-pyrrolidinyl}-3-fluoro-N,N-dimethylbenzamide]
12 | < 100 nM | < 100 nM | COCCN([C@H]1CCN(c2ccc(C(=O)N(C)C)cc2F)C1=O)S(=O)(=O)/C=C(\C)c1ccc(Cl)s1 [Example 10, 4-((3S)-3-{{[(1E)-2-(5-Chloro-2-thienyl)-1-propen-1-yl]sulfonyl}[2-(methyloxy)ethyl]amino}-2-oxo-1-pyrrolidinyl)-3-fluoro-N,N-dimethylbenzamide]
